Measurements: publication PMC8216288
No constants are given. Whether binding was seen depends on the method and setting. In cells and extracts the contact can be indirect. Some results given as binding are weak or reduced against the parent protein; the word gives no strength. For some of these results: Tags and fused reporters may be left off the sequences shown. One block for each substance: values may come before it.

Amino acid sequences for entries named in this document (tags omitted).
UniProt Q16637: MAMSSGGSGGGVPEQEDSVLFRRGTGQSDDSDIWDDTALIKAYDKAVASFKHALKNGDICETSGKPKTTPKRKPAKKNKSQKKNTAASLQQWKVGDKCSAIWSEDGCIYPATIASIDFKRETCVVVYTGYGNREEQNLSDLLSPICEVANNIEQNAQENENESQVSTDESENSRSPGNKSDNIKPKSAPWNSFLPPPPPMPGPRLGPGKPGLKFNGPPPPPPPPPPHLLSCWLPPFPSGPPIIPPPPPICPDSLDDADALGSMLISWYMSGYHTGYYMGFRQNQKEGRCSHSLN
UniProt Q9BQA1: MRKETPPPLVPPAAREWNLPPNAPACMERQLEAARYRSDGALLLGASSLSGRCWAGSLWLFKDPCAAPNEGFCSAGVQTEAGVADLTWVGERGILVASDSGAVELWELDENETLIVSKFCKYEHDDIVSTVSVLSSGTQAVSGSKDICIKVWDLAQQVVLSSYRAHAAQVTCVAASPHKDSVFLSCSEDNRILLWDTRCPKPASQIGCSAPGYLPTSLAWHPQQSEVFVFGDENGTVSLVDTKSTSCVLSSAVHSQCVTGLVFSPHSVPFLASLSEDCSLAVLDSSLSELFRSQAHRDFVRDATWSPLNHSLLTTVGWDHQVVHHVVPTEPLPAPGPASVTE
UniProt P62318: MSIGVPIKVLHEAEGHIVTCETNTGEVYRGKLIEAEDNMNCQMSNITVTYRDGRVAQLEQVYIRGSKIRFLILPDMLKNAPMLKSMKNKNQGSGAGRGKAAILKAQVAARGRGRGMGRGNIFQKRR
UniProt O14744: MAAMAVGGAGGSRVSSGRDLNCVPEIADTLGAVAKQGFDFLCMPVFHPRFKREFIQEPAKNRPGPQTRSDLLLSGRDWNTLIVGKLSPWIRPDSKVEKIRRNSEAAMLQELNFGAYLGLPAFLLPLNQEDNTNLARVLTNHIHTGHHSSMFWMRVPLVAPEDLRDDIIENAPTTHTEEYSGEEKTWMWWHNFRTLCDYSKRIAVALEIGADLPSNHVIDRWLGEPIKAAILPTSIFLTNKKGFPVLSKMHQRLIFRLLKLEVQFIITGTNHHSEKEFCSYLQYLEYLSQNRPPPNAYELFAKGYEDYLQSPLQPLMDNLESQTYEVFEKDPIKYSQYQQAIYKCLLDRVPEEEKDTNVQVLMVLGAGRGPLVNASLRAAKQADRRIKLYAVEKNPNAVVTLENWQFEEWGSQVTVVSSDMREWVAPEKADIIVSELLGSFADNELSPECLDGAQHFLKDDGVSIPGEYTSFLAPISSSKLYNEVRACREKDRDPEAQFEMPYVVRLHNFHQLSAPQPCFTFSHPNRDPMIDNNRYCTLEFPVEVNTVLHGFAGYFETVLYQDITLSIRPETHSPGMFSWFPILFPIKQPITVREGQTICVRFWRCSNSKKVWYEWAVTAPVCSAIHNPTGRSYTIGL

Experiments:
[1] = molecular target: GFP-pICln S193, 195, 197A (human) (UniProt P54105); assay: co-IP; GFP tagged pICln wild type and phosphomutants; details in SD Figure 3A (not shown)
[2] = molecular target: GFP-pICln wild type (human) (UniProt P54105); assay: as above
[3] = molecular target: GFP-pICln S193, 195, 197D (human) (UniProt P54105); assay: as above
[4] = molecular target: GST-pICln S193, 195, 197A (phospho-inactivating alanine mutant) (human) (UniProt P54105); assay: pull-down; GST-pICln (wt, phosphomutants or pre-phosphorylated by ULK1) on glutathione sepharose 4B with single in vitro translated 35S-labelled Sm proteins; 300 mM NaCl, 50 mM Tris/HCl pH 7.5, 1 mM EGTA, 1 mM EDTA, 1 mM DTT, 0.01% Igepal; 1.5 h at 4°C, two washes, autoradiography; only the target purified
[5] = molecular target: GST-pICln S193, 195, 197D (phospho-mimicking aspartate mutant) (human) (UniProt P54105); assay: as above
[6] = molecular target: GST-pICln wild type (human) (UniProt P54105); assay: as above
[7] = molecular target: T1, ULK1, endogenous (human (endogenous in HEK293T)) (UniProt O75385); assay: co-IP; endogenous ULK1 immunoprecipitated (protein-G-sepharose coated with 1 μg ULK1 antibody, 4°C overnight) from Superdex 200 increase fractions of HEK293T S100 extract; blot for pICln
T1 sequence: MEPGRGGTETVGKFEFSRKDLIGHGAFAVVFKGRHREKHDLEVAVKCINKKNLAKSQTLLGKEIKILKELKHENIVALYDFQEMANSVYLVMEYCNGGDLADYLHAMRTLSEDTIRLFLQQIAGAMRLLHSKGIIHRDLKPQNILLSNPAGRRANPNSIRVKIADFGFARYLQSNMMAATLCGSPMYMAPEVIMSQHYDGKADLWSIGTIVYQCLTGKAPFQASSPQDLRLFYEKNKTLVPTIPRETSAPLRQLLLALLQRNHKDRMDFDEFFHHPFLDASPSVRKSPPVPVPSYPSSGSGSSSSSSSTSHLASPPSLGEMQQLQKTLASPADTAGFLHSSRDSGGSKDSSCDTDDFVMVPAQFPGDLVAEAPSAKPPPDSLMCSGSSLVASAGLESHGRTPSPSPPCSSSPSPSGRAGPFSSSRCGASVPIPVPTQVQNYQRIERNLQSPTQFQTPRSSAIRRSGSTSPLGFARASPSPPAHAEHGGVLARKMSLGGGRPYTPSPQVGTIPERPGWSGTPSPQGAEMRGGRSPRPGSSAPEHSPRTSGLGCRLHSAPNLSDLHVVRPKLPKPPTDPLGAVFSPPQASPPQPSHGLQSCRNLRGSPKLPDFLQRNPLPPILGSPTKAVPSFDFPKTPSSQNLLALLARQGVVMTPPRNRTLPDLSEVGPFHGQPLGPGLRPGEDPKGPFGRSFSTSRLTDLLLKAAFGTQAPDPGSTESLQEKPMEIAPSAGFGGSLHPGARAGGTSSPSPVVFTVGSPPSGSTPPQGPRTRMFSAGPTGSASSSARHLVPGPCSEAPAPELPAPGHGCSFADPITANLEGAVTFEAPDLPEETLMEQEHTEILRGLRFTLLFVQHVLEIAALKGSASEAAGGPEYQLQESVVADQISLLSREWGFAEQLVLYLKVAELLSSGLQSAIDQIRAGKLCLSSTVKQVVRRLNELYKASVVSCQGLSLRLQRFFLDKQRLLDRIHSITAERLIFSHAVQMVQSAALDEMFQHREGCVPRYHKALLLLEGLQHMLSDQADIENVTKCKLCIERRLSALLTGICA

[8] = molecular target: T2, GFP-ULK1 (Unc-51-like kinase 1, full-length) (human) (UniProt O75385); assay: co-IP; GFP-IP with GFP-Trap_A beads from S100 cytoplasm extracts (Flp-In T-REx 293 induced with doxycycline, with or without 1 h EBSS starvation; HEK293T stably or transiently transfected), 4°C, at least 1.5 h, western blotting
T2 sequence: T1 sequence

Substance: SMN (survival motor neuron protein), endogenous (from UniProt Q16637 1-294)
binding [1]: binds | binding [2]: binds | binding [3]: binds

Substance: chloride conductance regulatory protein (pICln), endogenous (from UniProt P54105 1-237)
binding [7]: binds | binding [8]: binds

Substance: methylosome protein 50 (MEP50/WD45), endogenous (from UniProt Q9BQA1 1-342)
binding [8]: binds

The remaining lines, values ahead:

binding [4]: binds | binding [5]: binds | binding [6]: binds
Substance: SmD3, in vitro translated (from UniProt P62318 1-126)

binding [8]: binds
Substance: Protein arginine N-methyltransferase 5 (PRMT5), endogenous (from UniProt O14744 1-637) (enzyme)
